Construct, isoform or probe ends are uncertain for at least one entry. At least one verdict was read from the data and is not stated in words by the source.
Biological target: sNRP1 (human) (UniProt O14786)
Test: plate binding assay / competition
Settings: competitor RNA stated to bind NRP1, NRP1 form not stated; 3'-biotinylated cytidine (bis)phosphate ligated when labelled; recombinant protein; residues 22-640; label: 3' biotin or unlabeled

Sequences of proteins named here, by UniProt entry; tags and fusion partners are left off. Residues count along the entry.
UniProt O14786, 22-640: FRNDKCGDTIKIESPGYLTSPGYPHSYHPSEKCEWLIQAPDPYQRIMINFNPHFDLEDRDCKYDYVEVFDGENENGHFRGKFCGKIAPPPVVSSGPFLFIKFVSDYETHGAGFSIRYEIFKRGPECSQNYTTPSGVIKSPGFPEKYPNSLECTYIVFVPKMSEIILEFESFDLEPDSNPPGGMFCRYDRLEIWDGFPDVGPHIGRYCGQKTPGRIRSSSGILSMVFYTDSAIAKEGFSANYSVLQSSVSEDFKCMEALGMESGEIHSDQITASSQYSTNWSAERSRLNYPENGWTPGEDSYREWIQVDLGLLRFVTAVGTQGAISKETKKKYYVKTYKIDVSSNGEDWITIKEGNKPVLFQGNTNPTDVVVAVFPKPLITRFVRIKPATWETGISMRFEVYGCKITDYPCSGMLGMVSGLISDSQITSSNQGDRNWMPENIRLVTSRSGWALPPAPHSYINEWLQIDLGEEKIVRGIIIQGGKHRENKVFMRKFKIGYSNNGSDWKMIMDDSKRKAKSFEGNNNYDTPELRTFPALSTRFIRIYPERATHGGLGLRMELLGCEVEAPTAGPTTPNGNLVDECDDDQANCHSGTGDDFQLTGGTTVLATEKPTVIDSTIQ

CCUGGUUUUUAAGGAGUGUCGCCAGAGUGCCGCGAAUGAAAAA [control RNA from Pierce kit (competitor RNA)]
binding result: binds
